Measurements reported in article PMC11440251.

Sequences of proteins named here, by UniProt entry; tags and fusion partners are left off.
UniProt O75691: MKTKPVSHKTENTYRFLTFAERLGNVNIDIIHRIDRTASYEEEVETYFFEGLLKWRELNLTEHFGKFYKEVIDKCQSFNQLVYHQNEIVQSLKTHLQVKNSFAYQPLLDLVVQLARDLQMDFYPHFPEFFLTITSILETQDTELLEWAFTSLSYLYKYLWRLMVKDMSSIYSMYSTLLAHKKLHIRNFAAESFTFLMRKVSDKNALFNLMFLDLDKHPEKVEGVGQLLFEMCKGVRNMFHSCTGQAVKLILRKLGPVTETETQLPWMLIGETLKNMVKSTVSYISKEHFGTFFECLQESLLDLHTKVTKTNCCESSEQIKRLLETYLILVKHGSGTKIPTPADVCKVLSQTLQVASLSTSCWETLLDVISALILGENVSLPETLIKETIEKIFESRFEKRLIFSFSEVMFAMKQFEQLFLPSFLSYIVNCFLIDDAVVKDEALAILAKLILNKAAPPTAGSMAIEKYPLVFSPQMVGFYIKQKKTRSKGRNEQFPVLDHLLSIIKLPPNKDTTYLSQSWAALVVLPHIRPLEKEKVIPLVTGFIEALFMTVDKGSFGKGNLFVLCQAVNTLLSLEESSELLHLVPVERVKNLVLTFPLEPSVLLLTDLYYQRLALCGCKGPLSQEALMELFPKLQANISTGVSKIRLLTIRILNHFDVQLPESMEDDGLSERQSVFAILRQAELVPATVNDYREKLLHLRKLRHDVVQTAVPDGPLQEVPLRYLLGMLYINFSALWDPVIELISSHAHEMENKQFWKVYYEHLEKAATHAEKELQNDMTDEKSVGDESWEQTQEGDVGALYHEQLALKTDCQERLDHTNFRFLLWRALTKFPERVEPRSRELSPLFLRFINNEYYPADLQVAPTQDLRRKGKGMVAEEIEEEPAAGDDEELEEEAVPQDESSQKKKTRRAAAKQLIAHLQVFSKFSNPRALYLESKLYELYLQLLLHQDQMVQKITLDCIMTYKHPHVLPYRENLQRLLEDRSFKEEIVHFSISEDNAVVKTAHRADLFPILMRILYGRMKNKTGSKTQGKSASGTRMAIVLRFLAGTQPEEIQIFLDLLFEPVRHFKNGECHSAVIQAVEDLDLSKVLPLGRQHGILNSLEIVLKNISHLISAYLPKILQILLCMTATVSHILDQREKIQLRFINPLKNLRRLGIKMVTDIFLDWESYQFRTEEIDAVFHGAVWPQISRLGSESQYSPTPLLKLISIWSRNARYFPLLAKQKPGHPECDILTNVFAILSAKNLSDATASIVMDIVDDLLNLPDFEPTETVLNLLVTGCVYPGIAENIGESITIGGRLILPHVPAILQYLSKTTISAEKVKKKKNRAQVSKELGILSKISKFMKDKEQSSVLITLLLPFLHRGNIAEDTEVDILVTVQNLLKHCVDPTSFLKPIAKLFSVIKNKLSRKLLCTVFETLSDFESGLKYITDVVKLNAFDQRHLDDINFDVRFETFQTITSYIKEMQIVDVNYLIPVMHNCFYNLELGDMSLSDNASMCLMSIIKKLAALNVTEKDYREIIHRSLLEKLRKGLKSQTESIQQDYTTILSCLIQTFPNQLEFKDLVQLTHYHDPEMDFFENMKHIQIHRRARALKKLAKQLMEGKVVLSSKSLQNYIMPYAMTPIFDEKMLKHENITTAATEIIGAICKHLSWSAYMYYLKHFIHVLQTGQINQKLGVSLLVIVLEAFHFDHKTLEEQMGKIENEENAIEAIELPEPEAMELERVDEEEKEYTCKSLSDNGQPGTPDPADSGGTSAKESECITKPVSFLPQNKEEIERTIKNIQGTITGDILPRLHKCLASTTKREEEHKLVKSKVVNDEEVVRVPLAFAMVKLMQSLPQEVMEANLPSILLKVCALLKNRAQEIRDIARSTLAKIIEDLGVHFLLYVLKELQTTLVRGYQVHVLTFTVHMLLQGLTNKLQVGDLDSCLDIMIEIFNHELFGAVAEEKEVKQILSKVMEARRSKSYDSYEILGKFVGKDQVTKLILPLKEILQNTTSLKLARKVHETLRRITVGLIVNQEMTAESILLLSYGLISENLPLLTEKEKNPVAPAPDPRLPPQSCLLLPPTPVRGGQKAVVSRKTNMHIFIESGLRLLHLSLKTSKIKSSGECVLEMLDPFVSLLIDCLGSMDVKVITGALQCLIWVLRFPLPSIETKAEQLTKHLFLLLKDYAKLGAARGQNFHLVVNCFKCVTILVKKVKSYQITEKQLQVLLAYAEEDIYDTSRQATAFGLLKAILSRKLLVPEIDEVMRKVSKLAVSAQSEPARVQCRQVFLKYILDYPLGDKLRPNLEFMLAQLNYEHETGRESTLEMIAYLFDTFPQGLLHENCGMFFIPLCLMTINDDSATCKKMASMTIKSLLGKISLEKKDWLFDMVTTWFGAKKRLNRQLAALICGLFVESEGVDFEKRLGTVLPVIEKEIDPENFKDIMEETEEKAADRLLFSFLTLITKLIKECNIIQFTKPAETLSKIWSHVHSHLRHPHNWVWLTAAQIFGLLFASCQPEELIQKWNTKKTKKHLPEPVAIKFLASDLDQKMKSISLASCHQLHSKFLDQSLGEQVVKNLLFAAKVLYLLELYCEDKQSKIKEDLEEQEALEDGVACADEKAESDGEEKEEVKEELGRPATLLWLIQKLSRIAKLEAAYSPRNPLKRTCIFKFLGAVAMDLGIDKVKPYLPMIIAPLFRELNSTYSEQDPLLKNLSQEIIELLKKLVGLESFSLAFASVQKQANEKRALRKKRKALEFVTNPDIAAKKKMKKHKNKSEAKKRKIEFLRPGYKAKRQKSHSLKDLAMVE

B1: UTP14A (enzyme, UniProt Q9BVJ6 1-771)
chain: MTANRLAESLLALSQQEELADLPKDYLLSESEDEGDNDGERKHQKLLEAISSLDGKNRRKLAERSEASLKVSEFNVSSEGSGEKLVLADLLEPVKTSSSLATVKKQLSRVKSKKTVELPLNKEEIERIHREVAFNKTAQVLSKWDPVVLKNRQAEQLVFPLEKEEPAIAPIEHVLSGWKARTPLEQEIFNLLHKNKQPVTDPLLTPVEKASLRAMSLEEAKMRRAELQRARALQSYYEAKARREKKIKSKKYHKVVKKGKAKKALKEFEQLRKVNPAAALEELEKIEKARMMERMSLKHQNSGKWAKSKAIMAKYDLEARQAMQEQLSKNKELTQKLQVASESEEEEGGTEDVEELLVPDVVNEVQMNADGPNPWMLRSCTSDTKEAATQEDPEQLPELEAHGVSESEGEERPVAEEEILLREFEERRSLRKRSELSQDAEPAGSQETKDSGSQEVLSELRVLSQKLKENHQSRKQKASSEGTIPQVQREEPAPEEEEPLLLQRPERVQTLEELEELGKEECFQNKELPRPVLEGQQSERTPNNRPDAPKEKKKKEQMIDLQNLLTTQSPSVKSLAVPTIEELEDEEERNHRQMIKEAFAGDDVIRDFLKEKREAVEASKPKDVDLTLPGWGEWGGVGLKPSAKKRRRFLIKAPEGPPRKDKNLPNVIINEKRNIHAAAHQVRVLPYPFTHHWQFERTIQTPIGSTWNTQRAFQKLTTPKVVTKPGHIINPIKAEDVGYRSSSRSDLSVIQRNPKRITTRHKKQLKKCSVD

Assays:
[1] = biological target: T1, RB1 (human (endogenous in MGC803)) (UniProt P06400); assay: affinity purification with mass spectrometry; RB1 antibody added to MGC803 P16-WT and P16-KO cell lysates for IP; rabbit IgG as negative control; precipitated proteins run briefly on SDS-PAGE, LC-MS
T1 sequence: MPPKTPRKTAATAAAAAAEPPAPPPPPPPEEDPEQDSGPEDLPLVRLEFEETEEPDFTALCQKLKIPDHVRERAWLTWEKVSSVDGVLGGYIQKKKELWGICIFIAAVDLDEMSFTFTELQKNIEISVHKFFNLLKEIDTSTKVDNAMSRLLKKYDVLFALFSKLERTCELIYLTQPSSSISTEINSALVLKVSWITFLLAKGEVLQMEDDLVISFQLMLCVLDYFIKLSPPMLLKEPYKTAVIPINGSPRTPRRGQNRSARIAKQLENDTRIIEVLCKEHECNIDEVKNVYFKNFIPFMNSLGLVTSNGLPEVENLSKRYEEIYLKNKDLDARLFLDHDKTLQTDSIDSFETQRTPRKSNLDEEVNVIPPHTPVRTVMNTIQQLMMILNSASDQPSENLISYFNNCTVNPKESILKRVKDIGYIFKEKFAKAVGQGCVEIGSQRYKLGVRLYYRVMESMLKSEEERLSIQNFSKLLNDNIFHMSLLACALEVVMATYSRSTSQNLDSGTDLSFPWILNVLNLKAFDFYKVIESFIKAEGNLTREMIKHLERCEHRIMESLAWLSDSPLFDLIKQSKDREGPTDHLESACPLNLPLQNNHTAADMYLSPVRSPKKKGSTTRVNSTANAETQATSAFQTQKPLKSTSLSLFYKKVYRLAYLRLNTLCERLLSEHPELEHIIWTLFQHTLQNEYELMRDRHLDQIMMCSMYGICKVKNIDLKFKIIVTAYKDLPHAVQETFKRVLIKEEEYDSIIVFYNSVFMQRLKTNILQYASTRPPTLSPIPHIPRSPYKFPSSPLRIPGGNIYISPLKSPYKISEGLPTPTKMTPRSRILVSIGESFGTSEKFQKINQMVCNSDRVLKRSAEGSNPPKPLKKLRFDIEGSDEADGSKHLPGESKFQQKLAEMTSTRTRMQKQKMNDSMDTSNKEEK

[2] = biological target: T1, RB1 (human (endogenous in MGC803)); assay: as above; remark: listed apart in the source

Row | Molecule | binding [1] | binding [2]
1 | UTP20/1A6 (from UniProt O75691 1-2785) | binds | –
2 | B1 | – | binds

Like-named read-outs stand apart in the source and are kept apart here. Results are given in words; binding and its absence hold for the method and conditions named. In cells and extracts the contact can be indirect. A yes stands for co-enrichment or nearness to the bait. Other partners may have been found.
